Reference: PubChem BioAssay AID652272 (Drosophila RNAi Screening Center, 2013)

Assay: 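Genes whose knock-down decreases or increases Hedgehog reporter output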 (primary screen)
Cell system: Drosophila clone 8 (Cl8) cells
Knock-down reagent: long dsRNA against Drosophila genes
Read-out: 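Firefly light from a Hedgehog-responsive ptc promoter reporter and Renilla reference light, both read on a plate reader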
Reading the numbers: firefly Hh reporter signal: higher = more ptc reporter light; Renilla reference signal: higher = more Renilla control light
Hit rule: 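Called a hit if the two-replicate mean z-score lies below -2 or above +3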
Calls: active = hit: reporter lowered or raised; inactive = not a hit
The deposit covers about 21,000 reagents; below is a random part of those with a known target gene and a result. Of all reagents, 503 (2.4%) are marked active. 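Raw plate light values, not normalised; calls rest on replicate z-scores that were not deposited; hits include reporter decreases as well as increases.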 A plus sign joins genes that one reagent is predicted to hit. No sequences are given here. Not stated in the record: the amount of reagent, the time to read-out.

| Target gene | amplicon | firefly Hh reporter signal, replicate 1 | firefly Hh reporter signal, replicate 2 | Renilla reference signal, replicate 1 | Renilla reference signal, replicate 2 | activity call |
| --- | --- | --- | --- | --- | --- | --- |
| qvr (quiver) | DRSC05280 | 1.03e5 | 2.44e5 | 3210 | 9269 | inactive |
| CG13390 | DRSC02261 | 1.08e5 | 58812 | 2960 | 4888 | inactive |
| CG11123 | DRSC06040 | 1.08e5 | 48848 | 2322 | 4083 | inactive |
| Cyp6d5 (Cytochrome P450 6d5) | DRSC16634 | 1.09e5 | 71771 | 3891 | 2617 | inactive |
| CG33474 | DRSC05218 | 1.21e5 | 3.62e5 | 3239 | 13145 | inactive |
| f-cup (flyers-cup) | DRSC14139 | 1.51e5 | 1.22e5 | 5229 | 4245 | inactive |
| moody | DRSC18515 | 1.13e5 | 2.76e5 | 4791 | 11616 | inactive |
| CG15515 | DRSC15054 | 1.17e5 | 1.43e5 | 4470 | 4209 | inactive |
| CG3085 | DRSC04335 | 83384 | 51483 | 3419 | 2049 | inactive |
| CG12811 | DRSC14549 | 1.18e5 | 95651 | 4155 | 2937 | inactive |
| CG7196 (retired record) | DRSC01000 | 5.08e5 | 2.35e5 | 27360 | 10389 | inactive |
| CG7196 (retired record) | DRSC03023 | 75675 | 40691 | 2004 | 3200 | inactive |
| ksh (kish) | DRSC19554 | 1.08e5 | 1.46e5 | 4385 | 6816 | inactive |
| HisT (Histamine transporter) | DRSC05051 | 93527 | 2.50e5 | 2448 | 10102 | inactive |
| HisT (Histamine transporter) | DRSC05052 | 92184 | 2.61e5 | 2509 | 9933 | inactive |
| HisT (Histamine transporter) | DRSC06405 | 87024 | 63270 | 2693 | 1645 | inactive |
| Pros28.2 (retired record) | DRSC16800 | 5.10e5 | 94434 | 32477 | 7194 | inactive |
| CG2574 | DRSC19862 | 1.53e5 | 3.89e5 | 5828 | 15177 | inactive |
| CG15894 | DRSC18098 | 67283 | 1.78e5 | 2375 | 6752 | inactive |
| CG15894 | DRSC18099 | 34857 | 51981 | 1344 | 2449 | inactive |
| CG18810 | DRSC02701 | 73955 | 57227 | 1833 | 5169 | inactive |
| rtet (tetracycline resistance) | DRSC14160 | 1.69e5 | 1.23e5 | 6683 | 4969 | inactive |
| CG7179 | DRSC03020 | 62977 | 46107 | 1523 | 4464 | inactive |
| Arglu1 (Arginine and glutamate rich 1) | DRSC02909 | 84971 | 49164 | 2339 | 4953 | inactive |
| CG13130 (retired record) | DRSC02226 | 72810 | 28508 | 3493 | 5424 | active |
| GstE12 (Glutathione S transferase E12) | DRSC04047 | 80070 | 50832 | 2106 | 3056 | inactive |
| CG32801 | DRSC17964 | 1.07e5 | 2.44e5 | 4710 | 8755 | inactive |
| intr (intrepid) | DRSC14528 | 1.05e5 | 95168 | 1844 | 2296 | inactive |
| RfC4 (Replication factor C subunit 4) | DRSC08691 | 1.37e5 | 77604 | 5893 | 3741 | inactive |
| GABPI (beta4GalNAcTB pilot) | DRSC00494 | 76192 | 91219 | 3202 | 3757 | inactive |

Next part, starting with the last 3 of the part before.
| Target gene | amplicon | firefly Hh reporter signal, replicate 1 | firefly Hh reporter signal, replicate 2 | Renilla reference signal, replicate 1 | Renilla reference signal, replicate 2 | activity call |
| --- | --- | --- | --- | --- | --- | --- |
| intr (intrepid) | DRSC14528 | 1.05e5 | 95168 | 1844 | 2296 | inactive |
| RfC4 (Replication factor C subunit 4) | DRSC08691 | 1.37e5 | 77604 | 5893 | 3741 | inactive |
| GABPI (beta4GalNAcTB pilot) | DRSC00494 | 76192 | 91219 | 3202 | 3757 | inactive |
| CG17760 | DRSC06694 | 1.20e5 | 68316 | 2980 | 5081 | inactive |
| fipi (factor of interpulse interval) | DRSC00465 | 79076 | 45174 | 1735 | 4220 | inactive |
| CG45263 | DRSC12682 | 2.19e5 | – | 4698 | – | inactive |
| CG45263 | DRSC14357 | 54756 | 82262 | 1307 | 2688 | inactive |
| CG45263 | DRSC14360 | 53831 | 85466 | 1657 | 2529 | inactive |
| CG45263 | DRSC14361 | 58763 | 98880 | 2179 | 2945 | inactive |
| CG45263 | DRSC14363 | 42128 | 85194 | 1203 | 3159 | inactive |
| Ilp8 (Insulin-like peptide 8) | DRSC10076 | 98980 | – | 5165 | 3057 | inactive |
| Hao + Pex6 | DRSC06097 | 90102 | 44396 | 3430 | 1416 | inactive |
| Hao + Pex6 | DRSC06704 | 73602 | 43668 | 1657 | 3643 | inactive |
| fws (four way stop) | DRSC02969 | 77303 | 32269 | 2512 | 1124 | inactive |
| CG10903 | DRSC14281 | 72520 | 1.04e5 | 3264 | 3224 | inactive |
| Spn27A (Serpin 27A) | DRSC03608 | 92037 | 41056 | 2461 | 4203 | inactive |
| CG2865 | DRSC18527 | 1.29e5 | 1.39e5 | 3066 | 3458 | inactive |
| CG2865 | DRSC18528 | 3.50e5 | 46116 | 2474 | 2474 | inactive |
| slmo + CG34179 | DRSC03143 | 1.38e5 | 83624 | 5824 | 3834 | inactive |
| Stoml2 (Stomatin like 2) | DRSC04326 | 1.57e5 | 1.25e5 | 6273 | 4832 | inactive |
| CG2116 | DRSC18206 | 1.09e5 | 75670 | 2522 | 2092 | inactive |
| CG13760 | DRSC18617 | 66032 | 1.99e5 | 2665 | 7648 | inactive |
| CG32651 | DRSC18941 | 5.12e5 | 1.99e5 | 29971 | 4189 | inactive |
| HPS4 (Hermansky-Pudlak Syndrome 4) | DRSC06906 | 69670 | 38871 | 2018 | 2962 | inactive |
| CG15473 | DRSC18056 | 65062 | 2.38e5 | 2282 | 9417 | inactive |
| Prosalpha4 (Proteasome alpha4 subunit) | DRSC20271 | 74641 | 1.95e5 | 2780 | 9893 | inactive |
| CG43673 + CG43672 | DRSC19452 | 99068 | 2.56e5 | 3222 | 8445 | inactive |
| CG43673 + CG43672 | DRSC20108 | 75984 | 1.96e5 | 2369 | 7228 | inactive |
| Nagk (N-acetylglucosamine kinase) | DRSC15994 | 1.13e5 | 1.25e5 | 4637 | 4795 | inactive |
| Sik2 (Salt-inducible kinase 2) | DRSC18522 | 1.24e5 | 2.43e5 | 5063 | 9409 | inactive |
